Experimental data taken from the supplement of paper PMC12823440, “Inhibitors supercharge kinase turnover through native proteolytic circuits” (Nature, 2025).
The list shows a part of the results. Hit calls seldom repeat between salt and free forms of one compound.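 Kinases, fused to nanoluciferase, were expressed in K562 cells; luminescence was measured every 4 h from 2 to 18 h as percent of control (DMSO = 100%, positive control = 0%). A time point is decreased if signal falls significantly (2 sigma). Hits were called by the authors by a rule that is not shown; the count of time points alone does not decide it.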

Protein sequences, listed by entry. Tags and fused reporters are not part of them. Lines headed by an entry give the natural chain unless they say otherwise; changes in a name come on top.
UniProt Q9Y6E0: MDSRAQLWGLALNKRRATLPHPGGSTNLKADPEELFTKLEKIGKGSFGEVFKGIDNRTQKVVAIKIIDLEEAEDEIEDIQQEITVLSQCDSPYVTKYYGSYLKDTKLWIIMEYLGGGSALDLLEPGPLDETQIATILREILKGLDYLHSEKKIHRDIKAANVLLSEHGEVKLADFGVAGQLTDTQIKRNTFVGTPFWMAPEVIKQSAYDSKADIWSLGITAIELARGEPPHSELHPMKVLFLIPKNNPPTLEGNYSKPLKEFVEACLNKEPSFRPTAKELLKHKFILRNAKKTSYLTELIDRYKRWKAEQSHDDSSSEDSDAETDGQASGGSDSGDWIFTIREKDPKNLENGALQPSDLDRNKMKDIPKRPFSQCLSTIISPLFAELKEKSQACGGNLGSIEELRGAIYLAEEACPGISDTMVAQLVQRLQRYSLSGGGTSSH
UniProt O75460: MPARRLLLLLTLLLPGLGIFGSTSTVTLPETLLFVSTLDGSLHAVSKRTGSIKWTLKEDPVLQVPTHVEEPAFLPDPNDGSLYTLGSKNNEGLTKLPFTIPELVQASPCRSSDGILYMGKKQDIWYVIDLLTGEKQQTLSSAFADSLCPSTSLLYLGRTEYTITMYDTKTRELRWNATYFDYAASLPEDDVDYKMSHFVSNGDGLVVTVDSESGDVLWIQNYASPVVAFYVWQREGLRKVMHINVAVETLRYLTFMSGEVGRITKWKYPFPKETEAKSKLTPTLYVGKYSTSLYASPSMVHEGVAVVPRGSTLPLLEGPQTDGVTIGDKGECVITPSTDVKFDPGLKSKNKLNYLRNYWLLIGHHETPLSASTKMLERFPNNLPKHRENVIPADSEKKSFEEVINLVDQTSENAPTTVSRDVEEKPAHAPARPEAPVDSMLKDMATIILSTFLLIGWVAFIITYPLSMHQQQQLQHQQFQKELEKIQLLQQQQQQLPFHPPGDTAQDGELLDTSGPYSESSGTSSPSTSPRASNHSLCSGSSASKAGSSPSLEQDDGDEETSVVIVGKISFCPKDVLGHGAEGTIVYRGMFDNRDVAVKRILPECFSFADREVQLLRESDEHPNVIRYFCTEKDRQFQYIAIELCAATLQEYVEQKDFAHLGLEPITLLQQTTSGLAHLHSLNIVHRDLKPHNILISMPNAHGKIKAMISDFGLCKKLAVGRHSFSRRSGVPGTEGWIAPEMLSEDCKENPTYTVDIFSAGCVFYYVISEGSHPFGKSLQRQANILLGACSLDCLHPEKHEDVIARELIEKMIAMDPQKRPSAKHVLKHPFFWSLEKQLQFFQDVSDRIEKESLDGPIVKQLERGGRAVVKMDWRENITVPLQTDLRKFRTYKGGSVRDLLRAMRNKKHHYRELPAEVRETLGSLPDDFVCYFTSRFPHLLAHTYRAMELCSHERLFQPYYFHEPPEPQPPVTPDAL
UniProt Q12851: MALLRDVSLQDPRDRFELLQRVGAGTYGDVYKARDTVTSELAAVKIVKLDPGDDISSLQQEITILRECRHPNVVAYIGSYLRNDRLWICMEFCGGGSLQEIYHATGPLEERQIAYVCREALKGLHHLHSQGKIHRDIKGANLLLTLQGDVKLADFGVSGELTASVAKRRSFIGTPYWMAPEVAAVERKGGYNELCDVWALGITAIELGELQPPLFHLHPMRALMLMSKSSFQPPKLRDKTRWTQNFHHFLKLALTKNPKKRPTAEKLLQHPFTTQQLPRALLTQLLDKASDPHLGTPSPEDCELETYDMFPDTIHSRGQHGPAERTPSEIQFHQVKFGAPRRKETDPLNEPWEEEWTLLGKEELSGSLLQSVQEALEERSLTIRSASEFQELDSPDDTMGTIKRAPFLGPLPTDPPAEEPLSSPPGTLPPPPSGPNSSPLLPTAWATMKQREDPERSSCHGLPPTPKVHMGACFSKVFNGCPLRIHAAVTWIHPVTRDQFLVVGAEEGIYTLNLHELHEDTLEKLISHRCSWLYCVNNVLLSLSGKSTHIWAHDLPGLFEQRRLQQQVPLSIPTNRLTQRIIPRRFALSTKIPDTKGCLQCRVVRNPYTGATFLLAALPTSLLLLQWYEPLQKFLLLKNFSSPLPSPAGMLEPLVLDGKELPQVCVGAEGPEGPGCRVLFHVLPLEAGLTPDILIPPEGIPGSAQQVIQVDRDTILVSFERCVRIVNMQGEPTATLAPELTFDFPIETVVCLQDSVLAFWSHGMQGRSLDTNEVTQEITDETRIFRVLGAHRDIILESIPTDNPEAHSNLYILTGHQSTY
UniProt Q13546: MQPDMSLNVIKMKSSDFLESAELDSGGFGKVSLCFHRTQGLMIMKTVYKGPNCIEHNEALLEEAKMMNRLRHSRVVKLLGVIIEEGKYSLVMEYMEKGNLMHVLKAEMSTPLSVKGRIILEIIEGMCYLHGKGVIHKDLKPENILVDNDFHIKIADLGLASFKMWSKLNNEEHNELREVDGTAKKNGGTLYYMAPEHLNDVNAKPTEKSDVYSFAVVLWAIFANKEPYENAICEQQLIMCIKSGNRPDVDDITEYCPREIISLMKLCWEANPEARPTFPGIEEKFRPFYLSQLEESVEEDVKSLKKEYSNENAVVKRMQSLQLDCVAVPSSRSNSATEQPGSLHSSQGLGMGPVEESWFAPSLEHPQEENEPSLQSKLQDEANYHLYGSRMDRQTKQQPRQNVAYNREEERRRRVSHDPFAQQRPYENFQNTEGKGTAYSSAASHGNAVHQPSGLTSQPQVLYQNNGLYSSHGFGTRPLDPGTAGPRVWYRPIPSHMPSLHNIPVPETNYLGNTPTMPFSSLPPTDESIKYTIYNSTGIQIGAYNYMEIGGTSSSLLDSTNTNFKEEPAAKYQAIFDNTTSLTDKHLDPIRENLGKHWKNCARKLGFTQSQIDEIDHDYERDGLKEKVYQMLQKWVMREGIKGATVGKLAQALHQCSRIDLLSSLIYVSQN
UniProt Q96KB5: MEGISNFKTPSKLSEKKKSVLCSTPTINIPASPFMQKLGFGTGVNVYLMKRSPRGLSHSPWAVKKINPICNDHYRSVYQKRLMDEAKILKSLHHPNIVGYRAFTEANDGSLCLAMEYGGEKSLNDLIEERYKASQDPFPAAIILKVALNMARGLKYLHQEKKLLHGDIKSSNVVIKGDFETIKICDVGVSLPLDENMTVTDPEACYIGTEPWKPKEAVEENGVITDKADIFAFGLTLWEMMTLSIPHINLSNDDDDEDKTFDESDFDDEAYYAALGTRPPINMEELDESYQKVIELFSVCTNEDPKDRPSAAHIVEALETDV
UniProt P06241, whole entry, looked up: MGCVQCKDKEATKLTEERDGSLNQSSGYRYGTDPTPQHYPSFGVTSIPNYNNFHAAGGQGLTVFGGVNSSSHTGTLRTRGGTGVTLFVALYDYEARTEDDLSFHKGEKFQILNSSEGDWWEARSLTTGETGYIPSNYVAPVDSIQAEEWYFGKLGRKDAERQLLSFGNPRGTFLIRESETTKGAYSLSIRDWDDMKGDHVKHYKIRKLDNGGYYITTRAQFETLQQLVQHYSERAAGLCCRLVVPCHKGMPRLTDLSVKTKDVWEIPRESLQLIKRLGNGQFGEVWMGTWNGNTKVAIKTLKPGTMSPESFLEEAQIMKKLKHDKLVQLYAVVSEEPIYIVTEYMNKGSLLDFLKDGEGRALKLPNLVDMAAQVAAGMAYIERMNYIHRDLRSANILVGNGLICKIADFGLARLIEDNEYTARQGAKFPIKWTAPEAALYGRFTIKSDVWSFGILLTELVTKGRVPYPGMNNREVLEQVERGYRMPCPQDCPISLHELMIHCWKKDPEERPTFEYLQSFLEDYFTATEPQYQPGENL
UniProt Q9BRS2: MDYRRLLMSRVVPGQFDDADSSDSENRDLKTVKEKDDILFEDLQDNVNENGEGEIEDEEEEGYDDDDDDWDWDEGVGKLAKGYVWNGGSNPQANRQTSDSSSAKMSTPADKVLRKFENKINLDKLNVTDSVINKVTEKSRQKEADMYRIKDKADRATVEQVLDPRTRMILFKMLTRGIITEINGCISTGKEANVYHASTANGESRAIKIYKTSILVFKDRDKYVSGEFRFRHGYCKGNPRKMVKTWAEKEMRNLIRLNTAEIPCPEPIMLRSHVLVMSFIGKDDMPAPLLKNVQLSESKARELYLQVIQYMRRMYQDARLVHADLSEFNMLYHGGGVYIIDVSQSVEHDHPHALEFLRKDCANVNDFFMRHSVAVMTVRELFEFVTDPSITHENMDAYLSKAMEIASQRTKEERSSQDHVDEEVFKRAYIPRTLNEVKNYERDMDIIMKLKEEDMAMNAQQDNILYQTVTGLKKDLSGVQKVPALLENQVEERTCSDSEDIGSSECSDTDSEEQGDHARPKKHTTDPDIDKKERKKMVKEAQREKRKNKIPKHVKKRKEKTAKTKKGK
UniProt P49840: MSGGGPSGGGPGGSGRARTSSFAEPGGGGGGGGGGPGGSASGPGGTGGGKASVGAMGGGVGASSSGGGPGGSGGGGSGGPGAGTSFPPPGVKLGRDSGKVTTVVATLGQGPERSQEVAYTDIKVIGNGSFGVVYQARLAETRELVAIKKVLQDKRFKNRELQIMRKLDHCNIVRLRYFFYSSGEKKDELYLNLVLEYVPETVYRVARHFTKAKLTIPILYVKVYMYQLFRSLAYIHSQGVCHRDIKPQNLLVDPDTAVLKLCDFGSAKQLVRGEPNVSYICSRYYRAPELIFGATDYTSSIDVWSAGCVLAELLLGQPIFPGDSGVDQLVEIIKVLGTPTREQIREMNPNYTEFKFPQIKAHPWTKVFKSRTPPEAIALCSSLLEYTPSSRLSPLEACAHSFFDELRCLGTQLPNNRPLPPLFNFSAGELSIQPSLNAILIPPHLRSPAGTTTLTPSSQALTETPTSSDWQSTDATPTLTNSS
UniProt P21802, whole entry, looked up: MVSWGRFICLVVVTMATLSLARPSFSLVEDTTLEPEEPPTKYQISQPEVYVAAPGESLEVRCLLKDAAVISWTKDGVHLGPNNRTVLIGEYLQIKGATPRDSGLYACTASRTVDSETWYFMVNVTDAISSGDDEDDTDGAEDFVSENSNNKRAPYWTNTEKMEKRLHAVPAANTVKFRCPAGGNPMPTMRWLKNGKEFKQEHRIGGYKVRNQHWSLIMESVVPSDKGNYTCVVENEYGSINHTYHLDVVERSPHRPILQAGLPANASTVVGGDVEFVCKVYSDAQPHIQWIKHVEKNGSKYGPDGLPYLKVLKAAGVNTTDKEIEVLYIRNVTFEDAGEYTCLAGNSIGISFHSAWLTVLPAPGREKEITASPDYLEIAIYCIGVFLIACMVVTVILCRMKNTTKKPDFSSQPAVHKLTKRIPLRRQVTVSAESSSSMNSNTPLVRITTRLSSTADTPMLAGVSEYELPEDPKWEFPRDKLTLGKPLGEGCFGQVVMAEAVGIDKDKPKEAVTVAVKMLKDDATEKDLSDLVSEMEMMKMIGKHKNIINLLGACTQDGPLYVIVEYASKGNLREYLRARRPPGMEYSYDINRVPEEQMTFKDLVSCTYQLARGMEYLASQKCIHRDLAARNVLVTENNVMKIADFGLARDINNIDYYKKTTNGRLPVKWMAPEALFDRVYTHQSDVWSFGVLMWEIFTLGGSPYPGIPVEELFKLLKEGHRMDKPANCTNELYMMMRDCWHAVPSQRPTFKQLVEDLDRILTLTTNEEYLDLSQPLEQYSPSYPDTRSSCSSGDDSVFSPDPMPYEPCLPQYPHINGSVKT

Columns and labels:
Assay in all cases: number of time points (of 5) at which kinase-Nluc abundance scored as decreased, DMSO-normalised (count); higher = more persistent destabilization
[1] = compound: CCS(=O)(=O)N1CCN(c2ccc(Nc3ncc(C(N)=O)c(NC4CC4)n3)cc2)CC1 [Cerdulatinib (hydrochloride)]; conditions: 10 µM; K562; 2-18 h
Cerdulatinib = compound: CCS(=O)(=O)N1CCN(c2ccc(Nc3ncc(C(N)=O)c(NC4CC4)n3)cc2)CC1 [Cerdulatinib]; conditions: 10 µM; K562; 2-18 h
[2] = compound: CCc1nc(C(N)=O)c(Nc2ccc(N3CCC(N4CCN(C)CC4)CC3)c(OC)c2)nc1NC1CCOCC1 [Gilteritinib hemifumarate]; conditions: 2 µM; K562; 2-18 h
Gilteritinib = compound: CCc1nc(C(N)=O)c(Nc2ccc(N3CCC(N4CCN(C)CC4)CC3)c(OC)c2)nc1NC1CCOCC1 [Gilteritinib]; conditions: 2 µM; K562; 2-18 h
[3] = compound: CN(C)C(=N)NC(=N)N [Metformin (hydrochloride)]; conditions: 10 µM; K562; 2-18 h
Metformin = compound: CN(C)C(=N)NC(=N)N [Metformin]; conditions: 10 µM; K562; 2-18 h
Ribociclib hydrochloride = compound: CN(C)C(=O)c1cc2cnc(Nc3ccc(N4CCNCC4)cn3)nc2n1C1CCCC1 [Ribociclib hydrochloride]; conditions: 2.5 µM; K562; 2-18 h
[4] = compound: CN(C)C(=O)c1cc2cnc(Nc3ccc(N4CCNCC4)cn3)nc2n1C1CCCC1 [Ribociclib succinate hydrate]; conditions: 2.5 µM; K562; 2-18 h
Ribociclib succinate = compound: CN(C)C(=O)c1cc2cnc(Nc3ccc(N4CCNCC4)cn3)nc2n1C1CCCC1 [Ribociclib succinate]; conditions: 10 µM; K562; 2-18 h
Ribociclib = compound: CN(C)C(=O)c1cc2cnc(Nc3ccc(N4CCNCC4)cn3)nc2n1C1CCCC1 [Ribociclib]; conditions: 10 µM; K562; 2-18 h
Afatinib (dimaleate) = compound: CN(C)C/C=C/C(=O)Nc1cc2c(Nc3ccc(F)c(Cl)c3)ncnc2cc1O[C@H]1CCOC1 [Afatinib (dimaleate)]; conditions: 2.5 µM; K562; 2-18 h
Afatinib = compound: CN(C)C/C=C/C(=O)Nc1cc2c(Nc3ccc(F)c(Cl)c3)ncnc2cc1O[C@H]1CCOC1 [Afatinib]; conditions: 10 µM; K562; 2-18 h
[5] = compound: CN1CCCN(C(=O)c2cccc(-c3ccc(/C=C4/C(=O)Nc5ccc(Cl)cc54)o3)c2)CC1 [CX-6258 (hydrochloride hydrate)]; conditions: 2.5 µM; K562; 2-18 h
CX-6258 (hydrochloride) = compound: CN1CCCN(C(=O)c2cccc(-c3ccc(/C=C4/C(=O)Nc5ccc(Cl)cc54)o3)c2)CC1 [CX-6258 (hydrochloride)]; conditions: 2.5 µM; K562; 2-18 h
[6] = compound: CN1CCCN(C(=O)c2cccc(-c3ccc(/C=C4/C(=O)Nc5ccc(Cl)cc54)o3)c2)CC1; conditions: 2.5 µM; K562; 2-18 h
[7] = compound: CNC(=O)c1cc(Oc2ccc(NC(=O)Nc3ccc(Cl)c(C(F)(F)F)c3)c(F)c2)ccn1 [Regorafenib (monohydrate)]; conditions: 2.5 µM; K562; 2-18 h
Regorafenib = compound: CNC(=O)c1cc(Oc2ccc(NC(=O)Nc3ccc(Cl)c(C(F)(F)F)c3)c(F)c2)ccn1 [Regorafenib]; conditions: 2.5 µM; K562; 2-18 h
[8] = compound: CNC(=O)c1ccc(Nc2ncc(C(F)(F)F)c(NCc3nccnc3N(C)S(C)(=O)=O)n2)cc1 [Defactinib (hydrochloride)]; conditions: 10 µM; K562; 2-18 h
Defactinib = compound: CNC(=O)c1ccc(Nc2ncc(C(F)(F)F)c(NCc3nccnc3N(C)S(C)(=O)=O)n2)cc1 [Defactinib]; conditions: 10 µM; K562; 2-18 h
PND-1186 (hydrochloride) = compound: CNC(=O)c1ccccc1Nc1cc(Nc2ccc(N3CCOCC3)cc2OC)ncc1C(F)(F)F [PND-1186 (hydrochloride)]; conditions: 10 µM; K562; 2-18 h

Measured: number of time points

STK24 (UniProt Q9Y6E0)
0: all assays above

CDK10 (UniProt Q15131)
3: [1]
5: Afatinib
0: all other assays above

TEC (UniProt P42680)
3: [1]
0: all other assays above

LMTK2 (UniProt Q8IWU2)
4: Cerdulatinib
1: PND-1186 (hydrochloride)
3: [1] | [8]
0: all other assays above

ERN1 (UniProt O75460)
3: Afatinib
not listed: Ribociclib hydrochloride
0: all other assays above

HER2 (UniProt P04626)
2: Cerdulatinib
5: Afatinib (dimaleate) | Afatinib
3: [1]
1: Regorafenib
0: all other assays above

MAP4K2 (UniProt Q12851)
0: all assays above

EGFR_L718V (UniProt P00533)
not listed: Afatinib (dimaleate) | Afatinib
0: all other assays above

NTRK2 (UniProt Q16620)
1: Cerdulatinib
3: [1]
0: all other assays above

EGFR (UniProt P00533)
1: Regorafenib
not listed: Afatinib (dimaleate) | Afatinib
0: all other assays above

INSRR (UniProt P14616)
3: Afatinib
2: Cerdulatinib
4: [1]
1: Defactinib
0: all other assays above

EGFR_L858R (UniProt P00533)
2: [1] | Defactinib
not listed: Afatinib (dimaleate) | Afatinib
0: all other assays above

RAF1 (UniProt P04049)
2: [1] | Afatinib | [7] | Regorafenib
3: [8]
1: Cerdulatinib
0: all other assays above

EGFR_G719S (UniProt P00533)
3: [7]
2: [1]
1: Regorafenib
not listed: Afatinib (dimaleate) | Afatinib
0: all other assays above

RIPK1 (UniProt Q13546)
3: [1] | Afatinib
0: all other assays above

DDR1 (UniProt Q08345)
3: Defactinib
4: [1] | Cerdulatinib
1: Afatinib | [5]
0: all other assays above

ABL1 (UniProt P00519)
4: [1]
3: Afatinib
0: all other assays above

FLT3 (UniProt P36888)
4: [1]
3: Afatinib
2: Defactinib
0: all other assays above

PBK (UniProt Q96KB5)
0: all assays above

PDPK1 (UniProt O15530)
4: [1]
1: Afatinib
0: all other assays above

EGFR_L861Q (UniProt P00533)
4: [1] | [8]
1: Defactinib
not listed: Afatinib (dimaleate) | Afatinib
0: all other assays above

FYN (UniProt P06241)
4: [1] | Cerdulatinib | Afatinib
3: [7]
0: all other assays above

PRKCA (UniProt P17252)
not listed: [2] | Gilteritinib
0: all other assays above

LCK (UniProt P06239)
0: all assays above

EGFR_T790M (UniProt P00533)
not listed: Afatinib (dimaleate) | Afatinib
0: all other assays above

RIOK1 (UniProt Q9BRS2)
3: [1]
2: Afatinib
0: all other assays above

PDGFRB (UniProt P09619)
3: [1]
4: Afatinib | [7] | Regorafenib
0: all other assays above

BRAF_V600E
2: Afatinib | Defactinib
1: Cerdulatinib | [7] | [8]
3: [1]
0: all other assays above

CDK2 (UniProt P24941)
not listed: [1] | Cerdulatinib
0: all other assays above

PTK2B (UniProt Q14289)
2: [1]
1: Afatinib
0: all other assays above

TYK2 (UniProt P29597)
1: [7]
4: [1] | Afatinib
0: all other assays above

GSK3A (UniProt P49840)
0: all assays above

EGFR_G719S_T790M (UniProt P00533)
2: [1] | [8]
1: Defactinib
not listed: Afatinib (dimaleate) | Afatinib
0: all other assays above

FGFR2 (UniProt P21802)
2: Regorafenib | Defactinib
3: [1] | [7] | [8]
1: Cerdulatinib
0: all other assays above
